Here are results for one substance from paper doi:10.1101/2024.04.25.591054.

The chains behind the UniProt entries cited, without tags or fusion partners.
UniProt O00401: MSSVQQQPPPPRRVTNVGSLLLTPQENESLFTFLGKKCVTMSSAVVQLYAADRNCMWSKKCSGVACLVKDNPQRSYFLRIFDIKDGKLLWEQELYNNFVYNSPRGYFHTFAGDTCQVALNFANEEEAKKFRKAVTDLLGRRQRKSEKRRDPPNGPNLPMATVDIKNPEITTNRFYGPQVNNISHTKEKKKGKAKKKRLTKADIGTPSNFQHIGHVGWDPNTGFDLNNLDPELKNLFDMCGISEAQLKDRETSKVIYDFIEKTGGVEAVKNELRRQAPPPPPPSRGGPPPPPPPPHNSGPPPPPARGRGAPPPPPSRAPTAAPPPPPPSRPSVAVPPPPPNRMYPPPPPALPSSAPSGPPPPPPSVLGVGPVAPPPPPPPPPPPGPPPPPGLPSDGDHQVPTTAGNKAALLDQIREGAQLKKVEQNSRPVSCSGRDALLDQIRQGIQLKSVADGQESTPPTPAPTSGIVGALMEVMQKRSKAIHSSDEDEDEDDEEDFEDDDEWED

Like-named read-outs stand apart in the source and are kept apart here. These are yes or no findings as the source states them, for the method shown. Some binding calls cover weakened binding; strength is not graded here.

Assay [1] addresses T1, FBP17 (aa 1-617) (UniProt Q96RU3).
T1 sequence (chain, Alexa Fluor 647 on primary amines (AF647-FBP17, in the imaging assays)): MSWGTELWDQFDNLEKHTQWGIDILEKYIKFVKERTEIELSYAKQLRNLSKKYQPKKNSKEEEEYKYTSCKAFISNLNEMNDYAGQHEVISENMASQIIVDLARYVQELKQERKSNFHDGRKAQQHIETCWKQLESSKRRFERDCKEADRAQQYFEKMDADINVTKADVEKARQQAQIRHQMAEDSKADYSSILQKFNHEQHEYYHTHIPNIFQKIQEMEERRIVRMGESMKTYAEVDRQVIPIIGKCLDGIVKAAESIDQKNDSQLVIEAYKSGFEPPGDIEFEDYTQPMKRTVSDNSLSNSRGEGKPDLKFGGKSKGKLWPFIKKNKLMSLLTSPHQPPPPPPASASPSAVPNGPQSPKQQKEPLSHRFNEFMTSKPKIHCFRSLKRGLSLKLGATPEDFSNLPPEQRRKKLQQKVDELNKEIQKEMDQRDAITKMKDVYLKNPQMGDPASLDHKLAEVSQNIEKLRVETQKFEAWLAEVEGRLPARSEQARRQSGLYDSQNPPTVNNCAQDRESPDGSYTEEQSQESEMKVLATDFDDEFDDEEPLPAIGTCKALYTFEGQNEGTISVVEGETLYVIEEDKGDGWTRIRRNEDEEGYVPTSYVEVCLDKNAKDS

The target in assay [2] is T1, FBP17 (aa 1-617). In words: TIRF single-particle imaging on a flat supported lipid bilayer.

On to “N-WASP (aa 1-505), full length, auto-inhibited (from UniProt O00401 1-505)”, for which the binding result with FBP17 (aa 1-617) [1] and with FBP17 (aa 1-617) [2] was “binds” in each case.
